PubChem BioAssay AID686938 – Drosophila RNAi Screening Center | 2013
The deposit covers about 23,000 reagents; below is an unselected part of those with a known target gene and a result. Over the whole deposit, 75 (0.33%) were called active. 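Raw plate signals without normalisation; calls rest on plate z-scores that were not deposited; ratio present for only 364 wells.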 A number with no mark means an inactive call. Reagents against one gene are numbered here. Names joined by + are all predicted targets of the reagent. Not given: the dose of the treatment.

Test: 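Fly genes required for calcium entry once internal stores are emptied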 (primary screen)
System: Drosophila S2R+ cells
Reagents: long dsRNA against Drosophila genes, about 0.25 µg dsRNA per well, roughly 10,000 cells
Duration: 5 days of knock-down before the calcium assay
Conditions: thapsigargin (SERCA pump blocker) to empty calcium stores; entry signal taken 4 min after adding it
Detection: 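Per-well fluo-4 fluorescence in two replicates, unnormalised, measured in resting cells and 4 min after store depletion by the SERCA blocker thapsigargin; ratio of the two present in few wells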
Scale: calcium entry signal: higher = stronger calcium signal after store depletion; entry to resting ratio: higher = more calcium entry relative to resting level; resting calcium signal: higher = higher resting calcium signal
Call rule: 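Hit if the duplicate-averaged plate z-score for entry over resting signal is under −3; wells with weak total dye signal (Fmax z < −2) or more than 5 off-targets removed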
Meaning of the calls: active = strongly reduced calcium entry; inactive = no strong reduction

gene	reagent no.	calcium entry signal, replicate 1 (fluorescence units)	calcium entry signal, replicate 2 (fluorescence units)	entry to resting ratio	resting calcium signal, replicate 1 (fluorescence units)	resting calcium signal, replicate 2 (fluorescence units)
cocoon	1	3.70e7	6.32e7		1.93e7	2.52e7
mlt (retired record)	1	4.59e7	4.32e7		1.87e7	2.00e7
lncRNA:CR42862 + CG33229	1	4.25e7	3.24e7		1.91e7	1.68e7
CG33255 (retired record) + CR42842 + hpRNA:CR32205 + 1 more	1	3.55e7	3.42e7		1.76e7	1.66e7
CG32269 + CG32270	1	2.30e7	4.39e6		1.29e7	5.05e6
Hacl (2-hydroxyacyl-CoA lyase)	1	3.33e7	2.95e7		1.58e7	1.49e7
CG42331	1	2.32e7	2.11e7		1.20e7	1.27e7
CG42331	2	2.55e7	4.50e7		1.33e7	1.93e7
Cul1 (Cullin 1)	1	2.73e7	3.21e7		1.67e7	1.59e7
CG2765	1	2.25e7			1.21e7	
CG43063	1	2.54e7	2.94e7		1.19e7	1.33e7
CG8043	1	3.47e7	3.02e7		1.69e7	1.40e7

Next part, starting with the last 3 of the part before.
gene	reagent no.	calcium entry signal, replicate 1 (fluorescence units)	calcium entry signal, replicate 2 (fluorescence units)	entry to resting ratio	resting calcium signal, replicate 1 (fluorescence units)	resting calcium signal, replicate 2 (fluorescence units)
CG2765	1	2.25e7			1.21e7	
CG43063	1	2.54e7	2.94e7		1.19e7	1.33e7
CG8043	1	3.47e7	3.02e7		1.69e7	1.40e7
Atg13 (Autophagy-related 13)	1	4.91e7	3.61e7		2.18e7	1.87e7
PolE4 (DNA polymerase epsilon subunit 4)	1	1.68e7	2.50e7		1.05e7	1.14e7
TpnC25D (Troponin C at 25D)	1	3.33e7	4.41e7		1.65e7	2.06e7
CG7910	1	4.65e7	3.23e7		2.24e7	1.63e7
Nepl19 (Neprilysin-like 19)	1	3.76e7	3.05e7		2.05e7	1.64e7
Pss (Phosphatidylserine synthase)	1	2.73e7	3.98e7		1.28e7	1.70e7
RpS18 (Ribosomal protein S18)	1	1.56e7	1.35e7		1.17e7	1.02e7
CR18166 (pseudo)	1	5.76e7	3.21e7		2.85e7	1.80e7
CR18166 (pseudo)	2	2.05e7	2.46e7	1.9	1.09e7	1.23e7
CG18788	1	3.29e7	2.27e7		1.55e7	1.13e7
APC7 (Anaphase Promoting Complex subunit 7)	1	3.17e7	3.68e7		1.52e7	1.63e7
alpha-Est7 (alpha-Esterase-7)	1	4.02e7	3.00e7		2.08e7	1.51e7
